Laboratory results reported in the supplement of paper PMC11006884.
Only a part is listed here, and it is no random draw.

By UniProt entry, the sequences of proteins in these tests, tags left out. Where a name states a change or a piece, a line headed by the entry shows the natural chain unless it says otherwise.
UniProt Q93008, whole entry, looked up: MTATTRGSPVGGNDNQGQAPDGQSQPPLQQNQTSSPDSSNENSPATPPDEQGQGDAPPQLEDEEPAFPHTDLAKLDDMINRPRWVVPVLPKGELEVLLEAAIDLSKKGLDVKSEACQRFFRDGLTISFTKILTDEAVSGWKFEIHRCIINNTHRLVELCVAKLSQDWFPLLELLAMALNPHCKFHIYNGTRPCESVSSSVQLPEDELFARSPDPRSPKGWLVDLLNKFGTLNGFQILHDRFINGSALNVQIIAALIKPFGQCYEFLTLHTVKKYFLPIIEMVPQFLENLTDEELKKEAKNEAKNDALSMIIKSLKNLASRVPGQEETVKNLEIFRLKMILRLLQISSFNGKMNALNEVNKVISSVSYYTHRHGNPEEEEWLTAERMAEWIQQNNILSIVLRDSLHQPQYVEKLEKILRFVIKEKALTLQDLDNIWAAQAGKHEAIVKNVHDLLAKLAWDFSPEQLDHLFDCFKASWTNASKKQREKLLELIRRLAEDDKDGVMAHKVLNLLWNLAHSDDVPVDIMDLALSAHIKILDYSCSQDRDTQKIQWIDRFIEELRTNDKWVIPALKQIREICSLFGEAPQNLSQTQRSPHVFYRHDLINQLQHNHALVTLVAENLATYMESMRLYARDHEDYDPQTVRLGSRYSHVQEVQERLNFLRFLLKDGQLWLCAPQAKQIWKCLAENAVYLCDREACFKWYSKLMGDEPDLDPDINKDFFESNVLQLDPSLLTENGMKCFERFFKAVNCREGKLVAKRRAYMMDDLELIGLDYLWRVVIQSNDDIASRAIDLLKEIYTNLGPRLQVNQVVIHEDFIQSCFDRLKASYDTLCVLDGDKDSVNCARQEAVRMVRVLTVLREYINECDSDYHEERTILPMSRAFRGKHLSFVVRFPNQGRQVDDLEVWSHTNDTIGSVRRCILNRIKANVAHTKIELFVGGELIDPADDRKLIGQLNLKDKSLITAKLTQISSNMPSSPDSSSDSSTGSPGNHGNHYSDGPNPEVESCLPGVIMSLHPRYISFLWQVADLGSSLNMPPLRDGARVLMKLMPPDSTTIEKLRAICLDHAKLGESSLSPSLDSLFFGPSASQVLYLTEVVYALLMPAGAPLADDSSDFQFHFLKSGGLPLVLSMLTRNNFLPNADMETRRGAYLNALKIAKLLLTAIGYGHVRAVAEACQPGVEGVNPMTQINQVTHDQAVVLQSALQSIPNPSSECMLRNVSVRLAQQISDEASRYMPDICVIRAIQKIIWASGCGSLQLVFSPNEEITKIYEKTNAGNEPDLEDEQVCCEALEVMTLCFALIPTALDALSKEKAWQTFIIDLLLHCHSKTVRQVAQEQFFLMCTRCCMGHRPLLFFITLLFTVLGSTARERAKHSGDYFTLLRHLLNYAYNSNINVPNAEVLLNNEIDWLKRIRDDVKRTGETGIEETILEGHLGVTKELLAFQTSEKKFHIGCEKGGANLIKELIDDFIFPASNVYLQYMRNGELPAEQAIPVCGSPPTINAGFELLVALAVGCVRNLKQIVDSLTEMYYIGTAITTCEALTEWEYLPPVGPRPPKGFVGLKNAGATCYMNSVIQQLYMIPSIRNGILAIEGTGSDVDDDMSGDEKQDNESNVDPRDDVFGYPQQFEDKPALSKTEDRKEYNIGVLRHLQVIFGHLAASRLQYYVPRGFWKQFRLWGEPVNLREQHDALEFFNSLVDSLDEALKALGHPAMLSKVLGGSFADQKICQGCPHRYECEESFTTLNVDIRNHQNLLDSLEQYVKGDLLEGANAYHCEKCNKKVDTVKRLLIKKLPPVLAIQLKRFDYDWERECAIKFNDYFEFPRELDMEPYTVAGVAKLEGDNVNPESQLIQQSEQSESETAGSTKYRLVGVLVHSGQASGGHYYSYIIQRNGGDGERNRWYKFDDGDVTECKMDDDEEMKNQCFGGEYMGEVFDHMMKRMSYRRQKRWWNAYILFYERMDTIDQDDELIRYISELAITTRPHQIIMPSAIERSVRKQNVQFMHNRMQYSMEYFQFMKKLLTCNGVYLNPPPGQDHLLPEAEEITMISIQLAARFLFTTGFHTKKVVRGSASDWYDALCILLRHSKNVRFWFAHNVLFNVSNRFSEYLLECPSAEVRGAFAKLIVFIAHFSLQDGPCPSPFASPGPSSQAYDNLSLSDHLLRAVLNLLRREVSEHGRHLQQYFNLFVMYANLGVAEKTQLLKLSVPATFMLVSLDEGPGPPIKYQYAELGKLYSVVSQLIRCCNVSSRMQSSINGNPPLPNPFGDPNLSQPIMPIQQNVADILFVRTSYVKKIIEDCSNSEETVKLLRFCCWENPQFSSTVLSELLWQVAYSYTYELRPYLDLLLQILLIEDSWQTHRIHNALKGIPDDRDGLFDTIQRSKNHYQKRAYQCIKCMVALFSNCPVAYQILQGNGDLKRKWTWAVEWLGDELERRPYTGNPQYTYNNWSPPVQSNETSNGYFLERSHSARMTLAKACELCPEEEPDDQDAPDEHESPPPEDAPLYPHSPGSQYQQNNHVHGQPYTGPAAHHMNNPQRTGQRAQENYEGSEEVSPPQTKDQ
UniProt Q92616, whole entry, looked up: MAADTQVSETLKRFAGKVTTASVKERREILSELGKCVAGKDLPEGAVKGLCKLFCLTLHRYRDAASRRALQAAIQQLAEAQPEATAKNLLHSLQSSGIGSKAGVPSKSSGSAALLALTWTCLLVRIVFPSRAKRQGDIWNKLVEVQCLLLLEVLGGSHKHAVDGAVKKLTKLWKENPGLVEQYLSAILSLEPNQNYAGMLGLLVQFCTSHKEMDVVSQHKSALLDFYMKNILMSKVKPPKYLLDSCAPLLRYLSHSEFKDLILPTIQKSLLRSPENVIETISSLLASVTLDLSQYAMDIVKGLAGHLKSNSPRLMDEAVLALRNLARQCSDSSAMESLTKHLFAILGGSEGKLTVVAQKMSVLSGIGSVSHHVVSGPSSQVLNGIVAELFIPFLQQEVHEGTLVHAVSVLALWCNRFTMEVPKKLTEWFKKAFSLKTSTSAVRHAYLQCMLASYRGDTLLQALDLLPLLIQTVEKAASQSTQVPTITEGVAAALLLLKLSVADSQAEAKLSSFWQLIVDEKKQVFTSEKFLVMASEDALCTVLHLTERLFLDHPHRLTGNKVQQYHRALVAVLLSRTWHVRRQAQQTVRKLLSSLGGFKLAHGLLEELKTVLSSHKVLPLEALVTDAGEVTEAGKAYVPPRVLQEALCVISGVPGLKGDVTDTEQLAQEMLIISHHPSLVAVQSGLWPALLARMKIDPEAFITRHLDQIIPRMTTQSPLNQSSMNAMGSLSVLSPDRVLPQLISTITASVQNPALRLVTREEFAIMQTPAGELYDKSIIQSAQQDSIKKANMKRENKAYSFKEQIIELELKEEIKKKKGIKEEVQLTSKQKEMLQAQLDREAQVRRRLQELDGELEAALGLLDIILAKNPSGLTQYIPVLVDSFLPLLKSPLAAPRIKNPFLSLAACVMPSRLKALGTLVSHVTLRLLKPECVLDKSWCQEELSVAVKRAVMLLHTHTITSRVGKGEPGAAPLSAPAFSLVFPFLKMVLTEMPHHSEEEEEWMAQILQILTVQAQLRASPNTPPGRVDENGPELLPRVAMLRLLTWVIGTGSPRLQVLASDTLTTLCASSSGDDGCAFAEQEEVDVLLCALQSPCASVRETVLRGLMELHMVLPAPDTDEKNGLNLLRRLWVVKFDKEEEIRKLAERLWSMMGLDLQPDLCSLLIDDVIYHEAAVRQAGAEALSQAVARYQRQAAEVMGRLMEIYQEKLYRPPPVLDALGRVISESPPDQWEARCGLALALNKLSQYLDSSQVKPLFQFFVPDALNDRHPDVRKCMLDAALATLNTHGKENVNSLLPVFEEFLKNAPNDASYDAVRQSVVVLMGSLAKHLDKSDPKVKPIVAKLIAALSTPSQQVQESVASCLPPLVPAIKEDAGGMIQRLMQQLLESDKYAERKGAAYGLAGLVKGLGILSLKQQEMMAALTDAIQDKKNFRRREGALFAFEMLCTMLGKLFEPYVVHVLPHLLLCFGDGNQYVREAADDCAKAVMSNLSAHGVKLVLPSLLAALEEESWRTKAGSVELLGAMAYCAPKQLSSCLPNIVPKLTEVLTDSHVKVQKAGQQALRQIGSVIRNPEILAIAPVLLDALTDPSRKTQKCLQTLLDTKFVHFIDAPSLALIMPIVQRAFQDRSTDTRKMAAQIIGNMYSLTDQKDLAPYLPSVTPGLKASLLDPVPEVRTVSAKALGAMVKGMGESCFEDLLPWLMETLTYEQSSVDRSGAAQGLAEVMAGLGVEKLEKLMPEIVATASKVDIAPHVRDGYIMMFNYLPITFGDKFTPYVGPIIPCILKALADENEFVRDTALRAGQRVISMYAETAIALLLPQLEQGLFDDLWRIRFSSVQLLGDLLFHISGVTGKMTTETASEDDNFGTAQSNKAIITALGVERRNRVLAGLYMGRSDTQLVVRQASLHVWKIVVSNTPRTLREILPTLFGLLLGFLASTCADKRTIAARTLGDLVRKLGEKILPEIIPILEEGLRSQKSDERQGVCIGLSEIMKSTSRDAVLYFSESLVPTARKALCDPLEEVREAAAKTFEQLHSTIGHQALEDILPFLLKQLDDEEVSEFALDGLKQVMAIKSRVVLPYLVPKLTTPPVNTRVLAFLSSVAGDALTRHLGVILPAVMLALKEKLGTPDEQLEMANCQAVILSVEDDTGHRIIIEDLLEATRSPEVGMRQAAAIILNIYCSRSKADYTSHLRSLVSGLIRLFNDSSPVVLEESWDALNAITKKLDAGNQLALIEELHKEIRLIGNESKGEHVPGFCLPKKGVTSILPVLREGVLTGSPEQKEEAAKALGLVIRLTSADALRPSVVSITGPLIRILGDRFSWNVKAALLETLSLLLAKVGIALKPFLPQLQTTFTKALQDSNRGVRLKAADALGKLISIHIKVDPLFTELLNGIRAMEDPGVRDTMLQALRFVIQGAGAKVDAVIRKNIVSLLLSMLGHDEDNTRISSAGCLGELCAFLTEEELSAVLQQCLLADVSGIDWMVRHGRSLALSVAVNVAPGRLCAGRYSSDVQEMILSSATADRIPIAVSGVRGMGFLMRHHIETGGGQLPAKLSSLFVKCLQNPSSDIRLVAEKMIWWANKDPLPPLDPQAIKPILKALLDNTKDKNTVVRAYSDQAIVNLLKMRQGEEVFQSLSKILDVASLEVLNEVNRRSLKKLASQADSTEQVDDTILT
UniProt Q92922, whole entry, looked up: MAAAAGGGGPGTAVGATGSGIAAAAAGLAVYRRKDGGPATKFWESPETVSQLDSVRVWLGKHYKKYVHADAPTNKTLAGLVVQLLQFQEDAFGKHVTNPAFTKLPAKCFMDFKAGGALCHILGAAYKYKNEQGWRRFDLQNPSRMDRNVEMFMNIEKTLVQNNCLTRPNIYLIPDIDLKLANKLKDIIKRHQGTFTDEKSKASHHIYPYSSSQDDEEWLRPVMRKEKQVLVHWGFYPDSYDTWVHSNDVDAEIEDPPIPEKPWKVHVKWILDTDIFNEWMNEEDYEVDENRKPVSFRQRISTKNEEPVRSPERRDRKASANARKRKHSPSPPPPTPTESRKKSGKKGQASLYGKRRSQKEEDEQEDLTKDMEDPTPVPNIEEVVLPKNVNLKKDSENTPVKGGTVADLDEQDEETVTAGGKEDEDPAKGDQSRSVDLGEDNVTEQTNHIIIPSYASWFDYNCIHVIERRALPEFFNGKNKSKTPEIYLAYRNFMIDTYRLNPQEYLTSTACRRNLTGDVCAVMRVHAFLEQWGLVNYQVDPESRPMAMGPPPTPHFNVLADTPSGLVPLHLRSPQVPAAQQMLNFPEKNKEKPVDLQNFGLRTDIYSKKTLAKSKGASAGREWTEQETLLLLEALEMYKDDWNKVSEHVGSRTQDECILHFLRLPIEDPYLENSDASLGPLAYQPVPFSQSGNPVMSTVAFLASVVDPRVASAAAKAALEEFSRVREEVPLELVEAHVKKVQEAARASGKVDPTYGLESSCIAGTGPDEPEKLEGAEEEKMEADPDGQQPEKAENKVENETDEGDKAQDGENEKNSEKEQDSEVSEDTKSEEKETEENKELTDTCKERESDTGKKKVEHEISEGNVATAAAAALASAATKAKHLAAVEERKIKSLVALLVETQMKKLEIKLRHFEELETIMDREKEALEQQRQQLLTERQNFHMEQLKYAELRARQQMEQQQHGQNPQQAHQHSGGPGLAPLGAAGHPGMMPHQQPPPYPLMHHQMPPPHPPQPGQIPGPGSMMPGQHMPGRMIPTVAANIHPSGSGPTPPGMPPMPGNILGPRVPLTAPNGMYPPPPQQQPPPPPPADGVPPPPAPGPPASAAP
UniProt Q96C19: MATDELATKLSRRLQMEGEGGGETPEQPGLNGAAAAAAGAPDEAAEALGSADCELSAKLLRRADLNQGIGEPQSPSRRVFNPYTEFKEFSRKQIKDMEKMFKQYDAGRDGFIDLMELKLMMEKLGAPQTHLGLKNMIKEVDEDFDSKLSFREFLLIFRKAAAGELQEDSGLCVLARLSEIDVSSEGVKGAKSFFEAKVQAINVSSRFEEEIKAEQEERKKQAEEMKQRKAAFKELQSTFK

Each target was assayed with COC(=O)C#Cc1ccccc1 [methyl 3-phenylpropiolate] (assay: log2 ratio of iodoacetamide-alkyne labeling of the cysteine site, DMSO over compound (competition); higher = stronger covalent engagement of the cysteine by the compound, active = 1 or more). Conditions: 500 µM; treatment time 1 h; system: HEK293T cell lysate.
Outline: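 Three replicates, each with duplicate channels, were prepared from HEK293T lysate (2 mg/mL) treated with vehicle or electrophile at 500 µM for 1 h at ambient temperature. Iodoacetamide alkyne was then applied for 1 h, and samples were clicked to sCIP-TMT reagents, pooled, trypsin-digested overnight at 37 °C, enriched on streptavidin, acid-eluted and analysed on Orbitrap Eclipse LC-MS/MS with FAIMS, with FragPipe quantification. The log2 competition ratio per cysteine is the mean control-channel divided by the mean compound-channel reporter intensity. Cysteines quantified in only one replicate were left out.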

Target | log2 ratio of iodoacetamide-alkyne labeling
EDC3 C410 (UniProt Q96F86) | inactive: 0.216
CCDC97 C17 (UniProt Q96F63) | inactive: 0.33
USP9X C1808 (UniProt Q93008) | inactive: 0.0632
WDR89 C82 (UniProt Q96FK6) | inactive: 0.231
OTUB1 C91 (UniProt Q96FW1) | inactive: 0.103
UniProt Q96EY5_C90 | inactive: 0.176
AKAP1 C147 (UniProt Q92667) | active: 1.02
UniProt Q96ES7_C243 | inactive: 0.131
HSPH1 C658 (UniProt Q92598) | inactive: 0.0521
PHF3 C885 (UniProt Q92576) | inactive: 0.985
UniProt Q96FZ2_C131 | inactive: 0.711
TONSL C830 (UniProt Q96HA7) | inactive: 0.444
SYMPK C686 (UniProt Q92797) | inactive: 0.151
DPF2 C306 (UniProt Q92785) | inactive: -0.0956
GTPBP3 C489 (UniProt Q969Y2) | inactive: -0.093
TBRG4 C370 (UniProt Q969Z0) | inactive: -0.0476
FUBP1 C148 (UniProt Q96AE4) | inactive: 0.138
UniProt Q92599_C80 | inactive: 0.199
PYCR2 C262 (UniProt Q96C36) | inactive: 0.538

Two entries from above, as tab-separated lines.
Target	log2 ratio of iodoacetamide-alkyne labeling
PHF3 C885 (UniProt Q92576)	inactive: 0.985
UniProt Q96FZ2_C131	inactive: 0.711

More entries follow:

Target | log2 ratio of iodoacetamide-alkyne labeling
DAZAP1 C85 (UniProt Q96EP5) | inactive: -0.0499
UniProt Q92615_C633 | inactive: 0.556
TNPO1 C103 (UniProt Q92973) | inactive: 0.421
UniProt Q92616_C1692 | inactive: 0.202
SMARCC1 C164 (UniProt Q92922) | inactive: 0.146
KCTD12 C50 (UniProt Q96CX2) | inactive: 0.429
SMARCC1 C119 (UniProt Q92922) | inactive: 0.206
UniProt Q96EY4_C162 | inactive: 0.148
UniProt Q92841_C447 | inactive: 0.0335
SNX19 C277 (UniProt Q92543) | inactive: 0.576
USP9X C842 (UniProt Q93008) | inactive: 0.417
EFHD2 C53 (UniProt Q96C19) | inactive: 0.384
SMARCD1 C492 (UniProt Q96GM5) | inactive: 0.446
UniProt Q96EY5_C33 | inactive: -0.0646
UniProt Q96HE7_C166 | inactive: 0.283
FLYWCH2 C132 (UniProt Q96CP2) | inactive: 0.204
HSPH1 C650 (UniProt Q92598) | inactive: 0.025
ZC3HAV1L C125 (UniProt Q96H79) | inactive: 0.308
AKAP1 C165 (UniProt Q92667) | inactive: 0.411
